# Measured values taken from the supplement of paper PMC8728848.
# The other results are listed elsewhere or left out.
# What was measured:
# Assay in all cases: glycan array binding signal (z-score within array); higher = stronger binding
# Details in all cases: glycan notation: IUPAC condensed, linker removed
# [1] = target: Neu5Ac(a2-3)Gal(b1-3)[Fuc(a1-4)]GlcNAc(b1-3)Gal(b1-4)[Fuc(a1-3)]GlcNAc
# Procedure, shortened: (§1)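 Glycan array data were curated from 3228 arrays in the Consortium for Functional Glycomics database and kept only where the protein sequence was available. Glycan names were converted to IUPAC-condensed notation, and columns mapping to the same glycan were averaged. The binding signal is a within-array Z-score, averaged across arrays of the same protein sequence at different concentrations or buffers and across linkers. Negative Z-scores can be read as non-binding.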
# [2] = target: Neu5Ac(a2-3)Gal(b1-3)[Neu5Ac(a2-3)Gal(b1-4)]GlcNAc
# Procedure, shortened: as §1
# [3] = target: Neu5Ac(a2-3)Gal(b1-3)[Neu5Ac(a2-6)]GalNAc
# Procedure, shortened: as §1
# [4] = target: Neu5Ac(a2-3)Gal(b1-4)Glc
# Procedure, shortened: as §1
# [5] = target: Neu5Ac(a2-3)Gal(b1-4)GlcNAc
# Procedure, shortened: as §1
# [6] = target: Neu5Ac(a2-3)Gal(b1-4)GlcNAc(b1-2)Man(a1-3)[GlcNAc(b1-2)Man(b1-4)GlcNAc(b1-2)Man(a1-6)]Man(b1-4)GlcNAc(b1-4)GlcNAc
# Procedure, shortened: as §1
# [7] = target: Neu5Ac(a2-3)Gal(b1-4)GlcNAc(b1-2)Man(a1-3)[Neu5Ac(a2-6)Gal(b1-4)GlcNAc(b1-2)Man(a1-6)]Man(b1-4)GlcNAc(b1-4)GlcNAc
# Procedure, shortened: as §1
# [8] = target: Neu5Ac(a2-3)Gal(b1-4)GlcNAc(b1-3)Gal(b1-3)GlcNAc
# Procedure, shortened: as §1
# [9] = target: Neu5Ac(a2-3)Gal(b1-4)GlcNAc(b1-3)Gal(b1-4)GlcNAc
# Procedure, shortened: as §1
# [10] = target: Neu5Ac(a2-3)Gal(b1-4)GlcNAc(b1-3)Gal(b1-4)GlcNAc(b1-3)Gal(b1-4)GlcNAc
# Procedure, shortened: as §1
# [11] = target: Neu5Ac(a2-3)Gal(b1-4)GlcNAc(b1-3)Gal(b1-4)[Fuc(a1-3)]GlcNAc
# Procedure, shortened: as §1
# [12] = target: Neu5Ac(a2-3)Gal(b1-4)GlcNAc(b1-6)[Gal(b1-3)]GalNAc
# Procedure, shortened: as §1
# [13] = target: Neu5Ac(a2-3)Gal(b1-4)GlcNAc(b1-6)[Neu5Ac(a2-3)Gal(b1-3)]GalNAc
# Procedure, shortened: as §1
# [14] = target: Neu5Ac(a2-3)Gal(b1-4)GlcNAc6S
# Procedure, shortened: as §1
# [15] = target: Neu5Ac(a2-3)Gal(b1-4)[Fuc(a1-3)]GlcNAc
# Procedure, shortened: as §1
# [16] = target: Neu5Ac(a2-3)Gal(b1-4)[Fuc(a1-3)]GlcNAc(b1-3)Gal
# Procedure, shortened: as §1
# [17] = target: Neu5Ac(a2-3)Gal(b1-4)[Fuc(a1-3)]GlcNAc(b1-3)Gal(b1-4)GlcNAc
# Procedure, shortened: as §1
# [18] = target: Neu5Ac(a2-3)Gal(b1-4)[Fuc(a1-3)]GlcNAc(b1-3)Gal(b1-4)[Fuc(a1-3)]GlcNAc(b1-3)Gal(b1-4)[Fuc(a1-3)]GlcNAc
# Procedure, shortened: as §1
# [19] = target: Neu5Ac(a2-3)Gal(b1-4)[Fuc(a1-3)]GlcNAc(b1-6)[Gal(b1-3)]GalNAc
# Procedure, shortened: as §1
# [20] = target: Neu5Ac(a2-3)Gal(b1-4)[Fuc(a1-3)]GlcNAc6S
# Procedure, shortened: as §1
# [21] = target: Neu5Ac(a2-3)Gal6S(b1-4)GlcNAc
# Procedure, shortened: as §1
# [22] = target: Neu5Ac(a2-3)Gal6S(b1-4)[Fuc(a1-3)]GlcNAc
# Procedure, shortened: as §1
# [23] = target: Neu5Ac(a2-3)GalNAc
# Procedure, shortened: as §1
# [24] = target: Neu5Ac(a2-3)GalNAc(b1-4)GlcNAc
# Procedure, shortened: as §1
# [25] = target: Neu5Ac(a2-3)[GalNAc(b1-4)]Gal(b1-4)Glc
# Procedure, shortened: as §1
# [26] = target: Neu5Ac(a2-3)[GalNAc(b1-4)]Gal(b1-4)GlcNAc
# Procedure, shortened: as §1
# [27] = target: Neu5Ac(a2-3)[Neu5Ac(a2-6)]GalNAc
# Procedure, shortened: as §1
# [28] = target: Neu5Ac(a2-6)Gal
# Procedure, shortened: as §1
# [29] = target: Neu5Ac(a2-6)Gal(b1-4)Glc
# Procedure, shortened: as §1
# [30] = target: Neu5Ac(a2-6)Gal(b1-4)GlcNAc
# Procedure, shortened: as §1
# [31] = target: Neu5Ac(a2-6)Gal(b1-4)GlcNAc(b1-2)Man(a1-3)[Gal(b1-4)GlcNAc(b1-2)Man(a1-6)]Man(b1-4)GlcNAc(b1-4)GlcNAc
# Procedure, shortened: as §1
# [32] = target: Neu5Ac(a2-6)Gal(b1-4)GlcNAc(b1-2)Man(a1-3)[GlcNAc(b1-2)Man(a1-6)]Man(b1-4)GlcNAc(b1-4)GlcNAc
# Procedure, shortened: as §1
# [33] = target: Neu5Ac(a2-6)Gal(b1-4)GlcNAc(b1-2)Man(a1-3)[GlcNAc(b1-2)Man(b1-4)GlcNAc(b1-2)Man(a1-6)]Man(b1-4)GlcNAc(b1-4)GlcNAc
# Procedure, shortened: as §1
# [34] = target: Neu5Ac(a2-6)Gal(b1-4)GlcNAc(b1-2)Man(a1-3)[Neu5Ac(a2-6)Gal(b1-4)GlcNAc(b1-2)Man(a1-6)]Man(b1-4)GlcNAc(b1-4)GlcNAc
# Procedure, shortened: as §1
# [35] = target: Neu5Ac(a2-6)Gal(b1-4)GlcNAc(b1-2)Man(a1-6)[Gal(b1-4)GlcNAc(b1-2)Man(a1-3)]Man(b1-4)GlcNAc(b1-4)GlcNAc
# Procedure, shortened: as §1
# [36] = target: Neu5Ac(a2-6)Gal(b1-4)GlcNAc(b1-2)Man(a1-6)[GlcNAc(b1-2)Man(a1-3)]Man(b1-4)GlcNAc(b1-4)GlcNAc
# Procedure, shortened: as §1
# [37] = target: Neu5Ac(a2-6)Gal(b1-4)GlcNAc(b1-3)Gal(b1-4)GlcNAc
# Procedure, shortened: as §1
# [38] = target: Neu5Ac(a2-6)Gal(b1-4)GlcNAc(b1-3)Gal(b1-4)[Fuc(a1-3)]GlcNAc(b1-3)Gal(b1-4)[Fuc(a1-3)]GlcNAc
# Procedure, shortened: as §1
# [39] = target: Neu5Ac(a2-6)Gal(b1-4)GlcNAc6S
# Procedure, shortened: as §1
# [40] = target: Neu5Ac(a2-6)GalNAc
# Procedure, shortened: as §1
# [41] = target: Neu5Ac(a2-6)GalNAc(b1-4)GlcNAc
# Procedure, shortened: as §1
# [42] = target: Neu5Ac(a2-8)Neu5Ac
# Procedure, shortened: as §1
# [43] = target: Neu5Ac(a2-8)Neu5Ac(a2-3)Gal(b1-4)Glc
# Procedure, shortened: as §1
# [44] = target: Neu5Ac(a2-8)Neu5Ac(a2-3)[GalNAc(b1-4)]Gal(b1-4)Glc
# Procedure, shortened: as §1
# [45] = target: Neu5Ac(a2-8)Neu5Ac(a2-8)Neu5Ac
# Procedure, shortened: as §1
# [46] = target: Neu5Ac(a2-8)Neu5Ac(a2-8)Neu5Ac(a2-3)Gal(b1-4)Glc
# Procedure, shortened: as §1
# [47] = target: Neu5Ac(a2-8)Neu5Ac(a2-8)Neu5Ac(a2-3)[GalNAc(b1-4)]Gal(b1-4)Glc
# Procedure, shortened: as §1
# [48] = target: Neu5Ac(a2-8)Neu5Ac(a2-8)Neu5Ac(a2-8)Neu5Ac(a2-3)[GalNAc(b1-4)]Gal(b1-4)Glc
# Procedure, shortened: as §1
# [49] = target: Neu5Ac(b2-6)Gal(b1-4)GlcNAc
# Procedure, shortened: as §1
# [50] = target: Neu5Ac(b2-6)GalNAc
# Procedure, shortened: as §1
# [51] = target: Neu5Ac9Ac(a2-6)Gal(b1-4)GlcNAc
# Procedure, shortened: as §1
# [52] = target: Neu5Gc(a2-3)Gal(b1-3)GlcNAc
# Procedure, shortened: as §1
# [53] = target: Neu5Gc(a2-3)Gal(b1-3)[Fuc(a1-4)]GlcNAc
# Procedure, shortened: as §1
# [54] = target: Neu5Gc(a2-3)Gal(b1-4)Glc
# Procedure, shortened: as §1
# [55] = target: Neu5Gc(a2-3)Gal(b1-4)GlcNAc
# Procedure, shortened: as §1
# [56] = target: Neu5Gc(a2-3)Gal(b1-4)[Fuc(a1-3)]GlcNAc
# Procedure, shortened: as §1
# [57] = target: Neu5Gc(a2-6)Gal(b1-4)GlcNAc
# Procedure, shortened: as §1
# [58] = target: Neu5Gc(a2-6)GalNAc
# Procedure, shortened: as §1
# [59] = target: Neu5Gc(b2-6)Gal(b1-4)GlcNAc
# Procedure, shortened: as §1
binder,measurement,setting,value
"CLC (Homo sapiens), Q9UBD9 (protein) MDLRAGDSWGMLACLCTVLWHLPAVPALNRTGDPGPGPSIQKTYDLTRYLEHQLRSLAGTYLNYLGPPFNEPDFNPPRLGAETLPRATVDLEVWRSLNDKLRLTQNYEAYSHLLCYLRGLNRQAATAELRRSLAHFCTSLQGLLGSIAGVMAALGYPLPQPLPGTEPTWTPGPAHSDFLQKMDDFWLLKELQTWLWRSAKDFNRLKKKMQPPAAAVTLHLGAHGF",glycan array binding signal (z-score),[1],-0.381
same,glycan array binding signal (z-score),[2],0.655
same,glycan array binding signal (z-score),[3],-0.09
same,glycan array binding signal (z-score),[4],0.101
same,glycan array binding signal (z-score),[5],0.402
same,glycan array binding signal (z-score),[6],1.14
same,glycan array binding signal (z-score),[7],0.098
same,glycan array binding signal (z-score),[8],0.852
same,glycan array binding signal (z-score),[9],-0.262
same,glycan array binding signal (z-score),[10],-0.322
same,glycan array binding signal (z-score),[11],1.71
same,glycan array binding signal (z-score),[12],-0.301
same,glycan array binding signal (z-score),[13],0.384
same,glycan array binding signal (z-score),[14],-0.118
same,glycan array binding signal (z-score),[15],-0.565
same,glycan array binding signal (z-score),[16],-0.741
same,glycan array binding signal (z-score),[17],-0.089
same,glycan array binding signal (z-score),[18],-0.485
same,glycan array binding signal (z-score),[19],0.17
same,glycan array binding signal (z-score),[20],0.883
same,glycan array binding signal (z-score),[21],0.033
same,glycan array binding signal (z-score),[22],-0.518
same,glycan array binding signal (z-score),[23],0.032
same,glycan array binding signal (z-score),[24],-1.14
same,glycan array binding signal (z-score),[25],0.02
same,glycan array binding signal (z-score),[26],-0.181
same,glycan array binding signal (z-score),[27],-0.302
same,glycan array binding signal (z-score),[28],-0.927
same,glycan array binding signal (z-score),[29],1.07
same,glycan array binding signal (z-score),[30],-0.707
same,glycan array binding signal (z-score),[31],0.808
same,glycan array binding signal (z-score),[32],0.497
same,glycan array binding signal (z-score),[33],-0.823
same,glycan array binding signal (z-score),[34],-0.433
same,glycan array binding signal (z-score),[35],-0.583
same,glycan array binding signal (z-score),[36],-0.629
same,glycan array binding signal (z-score),[37],0.57
same,glycan array binding signal (z-score),[38],-0.072
same,glycan array binding signal (z-score),[39],-0.346
same,glycan array binding signal (z-score),[40],-0.432
same,glycan array binding signal (z-score),[41],-0.738
same,glycan array binding signal (z-score),[42],0.749
same,glycan array binding signal (z-score),[43],-0.101
same,glycan array binding signal (z-score),[44],-0.628
same,glycan array binding signal (z-score),[45],-0.155
same,glycan array binding signal (z-score),[46],-0.846
same,glycan array binding signal (z-score),[47],-0.035
same,glycan array binding signal (z-score),[48],0.298
same,glycan array binding signal (z-score),[49],-0.799
same,glycan array binding signal (z-score),[50],-0.297
same,glycan array binding signal (z-score),[51],-0.336
same,glycan array binding signal (z-score),[52],-0.229
same,glycan array binding signal (z-score),[53],-0.279
same,glycan array binding signal (z-score),[54],2.45
same,glycan array binding signal (z-score),[55],0.802
same,glycan array binding signal (z-score),[56],-0.195
same,glycan array binding signal (z-score),[57],-0.822
same,glycan array binding signal (z-score),[58],-0.089
same,glycan array binding signal (z-score),[59],0.062

# Three entries from above in a different format.
binder	measurement	setting	value
CLC (Homo sapiens), Q9UBD9 (protein) MDLRAGDSWGMLACLCTVLWHLPAVPALNRTGDPGPGPSIQKTYDLTRYLEHQLRSLAGTYLNYLGPPFNEPDFNPPRLGAETLPRATVDLEVWRSLNDKLRLTQNYEAYSHLLCYLRGLNRQAATAELRRSLAHFCTSLQGLLGSIAGVMAALGYPLPQPLPGTEPTWTPGPAHSDFLQKMDDFWLLKELQTWLWRSAKDFNRLKKKMQPPAAAVTLHLGAHGF	glycan array binding signal (z-score)	[14]	-0.118
same	glycan array binding signal (z-score)	[18]	-0.485
same	glycan array binding signal (z-score)	[58]	-0.089
